Test results from publication PMC9971195.

Biological target: T1, CEMIP, bait of the Co-IP with mass-spectrometric peptide sequencing (UniProt Q8WUJ3)
T1 sequence: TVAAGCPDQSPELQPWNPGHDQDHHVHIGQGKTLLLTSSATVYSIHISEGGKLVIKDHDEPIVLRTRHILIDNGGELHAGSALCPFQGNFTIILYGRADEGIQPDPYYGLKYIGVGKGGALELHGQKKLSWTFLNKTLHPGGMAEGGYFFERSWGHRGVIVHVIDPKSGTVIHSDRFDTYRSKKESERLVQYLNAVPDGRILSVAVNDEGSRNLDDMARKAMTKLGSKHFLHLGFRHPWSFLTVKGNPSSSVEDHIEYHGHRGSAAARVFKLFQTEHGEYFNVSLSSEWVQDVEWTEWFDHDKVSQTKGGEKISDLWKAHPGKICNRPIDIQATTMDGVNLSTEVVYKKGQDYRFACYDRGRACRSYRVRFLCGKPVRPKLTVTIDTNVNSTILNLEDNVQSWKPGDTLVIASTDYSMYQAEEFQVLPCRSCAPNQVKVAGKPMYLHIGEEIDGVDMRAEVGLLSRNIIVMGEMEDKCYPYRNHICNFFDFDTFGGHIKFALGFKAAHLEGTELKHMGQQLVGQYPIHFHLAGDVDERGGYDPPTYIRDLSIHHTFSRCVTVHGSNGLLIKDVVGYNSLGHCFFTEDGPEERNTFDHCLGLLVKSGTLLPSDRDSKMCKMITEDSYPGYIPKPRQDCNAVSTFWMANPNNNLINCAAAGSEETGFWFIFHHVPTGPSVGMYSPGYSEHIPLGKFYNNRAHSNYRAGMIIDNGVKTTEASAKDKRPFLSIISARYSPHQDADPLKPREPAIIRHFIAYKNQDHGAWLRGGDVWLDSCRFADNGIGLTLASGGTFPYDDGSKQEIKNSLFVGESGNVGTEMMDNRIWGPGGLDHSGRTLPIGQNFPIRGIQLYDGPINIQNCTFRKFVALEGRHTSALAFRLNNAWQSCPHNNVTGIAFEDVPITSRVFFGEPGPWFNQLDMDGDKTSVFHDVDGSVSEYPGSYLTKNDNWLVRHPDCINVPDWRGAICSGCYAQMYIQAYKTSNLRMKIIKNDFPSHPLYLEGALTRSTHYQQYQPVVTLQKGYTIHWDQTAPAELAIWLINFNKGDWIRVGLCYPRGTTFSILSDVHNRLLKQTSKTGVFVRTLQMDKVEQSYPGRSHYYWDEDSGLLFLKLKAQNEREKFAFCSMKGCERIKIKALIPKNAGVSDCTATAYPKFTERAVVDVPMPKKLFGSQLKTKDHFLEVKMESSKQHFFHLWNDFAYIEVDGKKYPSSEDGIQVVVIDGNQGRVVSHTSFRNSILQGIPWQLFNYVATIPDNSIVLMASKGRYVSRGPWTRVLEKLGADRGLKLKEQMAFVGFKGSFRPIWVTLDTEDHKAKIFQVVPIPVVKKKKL
Assay: affinity purification with mass spectrometry; Co-IP of CEMIP from cells (cells not stated), NETN buffer (20 mM Tris HCl pH 8.0, 100 mM NaCl, 1 mM EDTA, 0.5% Nonidet P-40), Protein G agarose beads, overnight at 4 °C; precipitates analysed by NanoLC mass spectrometer

- binding: binds
B1: GRAF1, hit of the CEMIP Co-IP with mass-spectrometric peptide sequencing (protein, UniProt Q9UNA1 1-814)
chain: MGLPALEFSDCCLDSPHFRETLKSHEAELDKTNKFIKELIKDGKSLISALKNLSSAKRKFADSLNEFKFQCIGDAETDDEMCIARSLQEFATVLRNLEDERIRMIENASEVLITPLEKFRKEQIGAAKEAKKKYDKETEKYCGILEKHLNLSSKKKESQLQEADSQVDLVRQHFYEVSLEYVFKVQEVQERKMFEFVEPLLAFLQGLFTFYHHGYELAKDFGDFKTQLTISIQNTRNRFEGTRSEVESLMKKMKENPLEHKTISPYTMEGYLYVQEKRHFGTSWVKHYCTYQRDSKQITMVPFDQKSGGKGGEDESVILKSCTRRKTDSIEKRFCFDVEAVDRPGVITMQALSEEDRRLWMEAMDGREPVYNSNKDSQSEGTAQLDSIGFSIIRKCIHAVETRGINEQGLYRIVGVNSRVQKLLSVLMDPKTASETETDICAEWEIKTITSALKTYLRMLPGPLMMYQFQRSFIKAAKLENQESRVSEIHSLVHRLPEKNRQMLQLLMNHLANVANNHKQNLMTVANLGVVFGPTLLRPQEETVAAIMDIKFQNIVIEILIENHEKIFNTVPDMPLTNAQLHLSRKKSSDSKPPSCSERPLTLFHTVQSTEKQEQRNSIINSSLESVSSNPNSILNSSSSLQPNMNSSDPDLAVVKPTRPNSLPPNPSPTSPLSPSWPMFSAPSSPMPTSSTSSDSSPVRSVAGFVWFSVAAVVLSLARSSLHAVFSLLVNFVPCHPNLHLLFDRPEEAVHEDSSTPFRKAKALYACKAEHDSELSFTAGTVFDNVHPSQEPGWLEGTLNGKTGLIPENYVEFL

Results are given in words; binding and its absence hold for the method and conditions named. In cells and extracts the contact can be indirect. These calls come from enrichment with a bait or labelling near it, and not all partners need be listed.
